From paper PMC9834407
These are yes or no findings as the source states them, for the method shown. Binding seen in cells or lysates may run through a third protein. Some entries that bind do so weakly or less than the wild type.

Chains of the proteins cited; added tags and fusions are not shown. Lines headed by an entry give the natural chain unless they say otherwise; changes in a name come on top.
UniProt P08670: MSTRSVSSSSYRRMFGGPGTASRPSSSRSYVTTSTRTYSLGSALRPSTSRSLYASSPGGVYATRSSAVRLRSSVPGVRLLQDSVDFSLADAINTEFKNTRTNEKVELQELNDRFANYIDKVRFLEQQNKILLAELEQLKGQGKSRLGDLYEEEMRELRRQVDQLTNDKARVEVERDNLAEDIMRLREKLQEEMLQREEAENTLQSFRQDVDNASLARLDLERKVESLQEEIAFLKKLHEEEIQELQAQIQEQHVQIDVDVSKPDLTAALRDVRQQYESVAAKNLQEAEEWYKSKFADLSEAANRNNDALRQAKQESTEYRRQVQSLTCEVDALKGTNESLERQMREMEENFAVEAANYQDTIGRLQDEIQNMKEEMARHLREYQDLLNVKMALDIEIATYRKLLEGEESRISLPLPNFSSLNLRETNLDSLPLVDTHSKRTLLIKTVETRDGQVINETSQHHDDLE
UniProt P05556: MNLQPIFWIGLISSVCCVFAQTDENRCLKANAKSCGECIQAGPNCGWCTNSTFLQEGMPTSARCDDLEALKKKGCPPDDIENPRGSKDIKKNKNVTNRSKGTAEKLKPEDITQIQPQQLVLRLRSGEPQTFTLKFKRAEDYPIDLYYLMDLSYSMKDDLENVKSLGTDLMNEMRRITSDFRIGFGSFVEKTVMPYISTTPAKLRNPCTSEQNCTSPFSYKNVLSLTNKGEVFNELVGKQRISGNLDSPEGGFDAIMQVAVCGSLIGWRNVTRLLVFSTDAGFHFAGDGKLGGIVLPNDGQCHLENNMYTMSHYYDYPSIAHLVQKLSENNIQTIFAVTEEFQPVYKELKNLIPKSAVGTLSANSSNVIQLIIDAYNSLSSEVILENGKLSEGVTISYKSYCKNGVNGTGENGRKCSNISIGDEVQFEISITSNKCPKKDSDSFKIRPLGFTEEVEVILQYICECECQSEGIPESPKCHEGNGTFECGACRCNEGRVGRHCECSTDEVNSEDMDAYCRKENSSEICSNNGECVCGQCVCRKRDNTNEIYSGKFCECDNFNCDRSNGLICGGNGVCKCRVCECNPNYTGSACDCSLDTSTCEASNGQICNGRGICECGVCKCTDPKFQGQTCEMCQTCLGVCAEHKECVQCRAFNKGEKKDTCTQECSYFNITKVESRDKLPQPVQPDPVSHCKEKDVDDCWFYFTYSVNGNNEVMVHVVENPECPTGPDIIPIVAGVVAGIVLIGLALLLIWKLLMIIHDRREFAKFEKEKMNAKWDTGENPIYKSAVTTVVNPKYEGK
UniProt A2A2Y4: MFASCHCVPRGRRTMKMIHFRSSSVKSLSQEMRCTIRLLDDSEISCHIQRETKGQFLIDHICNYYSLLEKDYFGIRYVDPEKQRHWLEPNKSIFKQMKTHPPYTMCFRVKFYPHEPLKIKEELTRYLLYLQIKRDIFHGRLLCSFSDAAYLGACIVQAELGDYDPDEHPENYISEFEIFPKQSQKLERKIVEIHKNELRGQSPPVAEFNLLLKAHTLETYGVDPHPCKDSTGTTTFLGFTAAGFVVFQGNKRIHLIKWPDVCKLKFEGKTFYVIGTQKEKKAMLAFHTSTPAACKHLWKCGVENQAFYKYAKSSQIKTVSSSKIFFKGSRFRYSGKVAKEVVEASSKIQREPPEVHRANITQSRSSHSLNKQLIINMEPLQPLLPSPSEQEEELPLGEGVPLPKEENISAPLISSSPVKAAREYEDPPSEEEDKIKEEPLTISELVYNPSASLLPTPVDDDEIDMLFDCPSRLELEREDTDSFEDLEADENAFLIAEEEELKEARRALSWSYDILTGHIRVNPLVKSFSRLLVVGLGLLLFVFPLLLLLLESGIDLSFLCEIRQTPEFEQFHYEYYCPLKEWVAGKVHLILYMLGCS

Assays:
[1] = target: vimentin, endogenous (human (endogenous in T47D, MDA-MB-231 and MCF10A)) (UniProt P08670); experiment: co-IP; endogenous proteins in MCF10A lysate; antibody on Protein A/G magnetic beads, 4 °C overnight, Western blot; isotype-matched IgG as negative control
β1-integrin = β1-integrin (UniProt P05556); experiment: as above
[2] = target: vimentin, endogenous (human (endogenous in T47D, MDA-MB-231 and MCF10A)) (UniProt P08670); experiment: co-IP; lysates of T47D and MDA-MB-231 cells with FRMD3 overexpression; antibody on Protein A/G magnetic beads, 4 °C overnight, Western blot; which partner was precipitated is not told

| Substance | binding [1] | binding (β1-integrin) | binding [2] |
| --- | --- | --- | --- |
| FRMD3, endogenous (from UniProt A2A2Y4 1-597) | binds | no binding |  |
| FERM domain-containing protein 3 (FRMD3), Flag-tagged, from pcflag-FRMD3 (from UniProt A2A2Y4 1-597) |  |  | binds |
